Source: patent US20240301061A1
No constants are given. Whether binding was seen depends on the method and setting. Binding calls can cover weak binding; strength is not graded here.

How the values were obtained:
cyno CLDN6 (cyno) [1] = test: flow cytometry on CHOK1 cells expressing cyno CLDN6, MFI(PE)
cyno CLDN6 (cyno) [2] = test: flow cytometry, CHOK1-cyno CLDN6 cells (FIG. 1I)
cyno CLDN6 (cyno) [3] = test: flow cytometry, CHOK1 stable cells

Row | Binder | binding (cyno CLDN6 (cyno) [1]) | binding (cyno CLDN6 (cyno) [2]) | binding (cyno CLDN6 (cyno) [3])
1 | BG87P-21 (antibody, V domains shown) VH: QVQLVQSGAEVKKPGASVKVSCKASGYSFTDYHINWVRQAPGQRLEWMGWIYPGSGYTKYNEKFKGRVTITRDTSASTAYMELSSLRSEDTAVYYCARSGIYHYVSSYYFDHWGKGTTVTVSS VL: DIQMTQSPSTLSASVGDRVTITCKASQDVGTAVAWYQQKPGKAPKLLIYWASTRHTGVPSRFSGSGSGTEFTLTISSLQPDDFATYYCQQYSSYTFGGGTKVEIK | binds | – | –
2 | BG87P-33 (antibody, V domains shown) VH: EVQLQESGGGLVQPGGSLRLSCAASGYSFTDYHINWVRQAPGKGLEWVSYIYPGSGHTKYNEKFKGRFTISRDTSKNTAYLQMNSLRAEDTAVYYCARSGIYHYVSSYYFDHWGQGTLVTVSS VL: DIQMTQSPSTLSASVGDRVTITCKASQDAGSAVAWYQQKPGKAPKLLIYWASTRHTGVPSRFSGSGSGTEFTLTISSLQPDDFATYYCQQYSSYTFGGGTKVEIK | binds | – | –
3 | BG87P (antibody, V domains shown) VH: QIQLQQSGPELVKPGASVKISCKASGYSFTDYHINWVKQRPGQGLEWIGWIYPGSGYTKYNEKFKVKATLTVDTSSSTAYMHLTSLTSEDSAVYFCARSGIYHYVSSYYFDHWGQGTTLTVSS VL: DIVMTQSHTFMSTSVGDRVSITCKASQDVGTAVAWYQQKPGQSPKLLIYWASTRHTGVPDRFTGSGSGTDFTLTISNVQSEDLADYFCQQYSSYTFGGGTKLEIK | – | – | binds

Further lines, results first:

Row | binding (cyno CLDN6 (cyno) [1]) | binding (cyno CLDN6 (cyno) [2]) | binding (cyno CLDN6 (cyno) [3]) | Binder
4 | binds | binds | – | BG87P-34 (antibody, V domains shown) VH: EVQLQESGGGLVQPGGSLRLSCAASGYSFSDYHINWVRQAPGKGLEWVGYIYPGSGHTKYNEKFKGRFTISRDTSSNTAYLQMNSLRAEDTAVYYCARSGIYHYVSSYYFDHWGQGTLVTVSS VL: DIQMTQSPSSLSASVGDRVTITCKASQDAGSAVAWYQQKPGKAPKLLIYWASTRHTGVPSRFSGSGSGTDFTLTISSLQPEDFATYYCQQYSSYTFGGGTKLEIK
5 | binds | – | – | anti-CLDN6 chimeric BG87P (antibody, V domains shown) VH: QIQLQQSGPELVKPGASVKISCKASGYSFTDYHINWVKQRPGQGLEWIGWIYPGSGYTKYNEKFKVKATLTVDTSSSTAYMHLTSLTSEDSAVYFCARSGIYHYVSSYYFDHWGQGTTLTVSS VL: DIVMTQSHTFMSTSVGDRVSITCKASQDVGTAVAWYQQKPGQSPKLLIYWASTRHTGVPDRFTGSGSGTDFTLTISNVQSEDLADYFCQQYSSYTFGGGTKLEIK
